Patent publication US20160032001A1 (APEXIGEN, published 2016)
Results are given in words; binding and its absence hold for the method and conditions named. Some entries that bind do so weakly or less than the wild type.

What was measured:
human RANKL protein [1] = molecular target: T1, human RANKL protein (human, UniProt O14788 140-317, limits assumed); test: ELISA on RANKL protein
T1 sequence (looked up): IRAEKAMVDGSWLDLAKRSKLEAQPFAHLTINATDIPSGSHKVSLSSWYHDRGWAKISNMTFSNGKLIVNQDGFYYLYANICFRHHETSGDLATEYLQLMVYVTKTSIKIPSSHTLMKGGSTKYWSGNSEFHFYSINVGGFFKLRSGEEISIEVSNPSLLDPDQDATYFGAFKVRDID

human RANKL protein [2] = molecular target: T1, human RANKL protein; test: ELISA on RANKL protein (FIG. 12)
[3] = molecular target: T2, RANKL expressed on the surface of 293 cells (UniProt O14788); test: binding to RANKL-transfected 293 cells (FIG. 6)
T2 sequence (looked up): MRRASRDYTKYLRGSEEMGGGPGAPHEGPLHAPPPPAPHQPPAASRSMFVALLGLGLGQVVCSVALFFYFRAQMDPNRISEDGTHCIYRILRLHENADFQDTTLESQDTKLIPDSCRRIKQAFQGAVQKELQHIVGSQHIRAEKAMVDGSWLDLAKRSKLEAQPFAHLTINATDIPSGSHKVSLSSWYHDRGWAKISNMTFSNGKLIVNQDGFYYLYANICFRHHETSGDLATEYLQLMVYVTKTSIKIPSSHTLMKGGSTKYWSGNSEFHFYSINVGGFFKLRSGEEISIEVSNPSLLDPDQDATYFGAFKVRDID

| Binder | binding (human RANKL protein [1]) | binding (human RANKL protein [2]) | binding [3] |
| --- | --- | --- | --- |
| humanized clone 23 antibody, VH 23HZD-1 HC with humanized VL 23 Vkb, IgG1 (antibody, V domains shown, also called h23 IgG1) VH: EVQLVESGGGLVQPGGSLRLSCAASGFSLSSDGMSWVRQAPGKGLEWIGYIYSGSSPYYANWAKGRFTISKDSSKNTVYLQMNSLRAEDTAVYFCARHGSGGGWYLDIWGPGTLVTVSS VL: DIQMTQSPSSLSASVGDRVTINCQASQSIGSNLAWYQQKPGKRPKLLIYAASTLPSGVPSRFSGSGSGTDFTLTISSLQPEDFATYYCQQAYSVGNVDNAFGGGTKVEIK | binds |  |  |
| h23n IgG2 humanized clone 23 antibody (antibody, V domains shown, IgG2; also called h23n VH and VL) VH: QEQLVESGGGLVQPGGSLRLSCVASGFSLSSDGMSWVRQAPGKGLEWIGYIYSGSSPYYANWAKGRFTISKDSSTNTVFLQMNSLRAEDTAVYFCARHGDGGGWYLDIWGPGTLVTVSS VL: DIQMTQSPSSLSASVGDRVTINCQASQSIGSNLAWYQQKPGKAPKLLIYAASTLPSGVSSRFSGSGSGTDFTLTINSLEAEDAATYYCQQAYSVGNVDNAFGGGTKVEIK | binds | binds |  |
| humanized clone 23 antibody, VH 23HZD-1 HC with humanized VL 23 Vkb, IgG2 (antibody, V domains shown, also called humanized 23 vkb; humanized 23 VKB) VH: EVQLVESGGGLVQPGGSLRLSCAASGFSLSSDGMSWVRQAPGKGLEWIGYIYSGSSPYYANWAKGRFTISKDSSKNTVYLQMNSLRAEDTAVYFCARHGSGGGWYLDIWGPGTLVTVSS VL: DIQMTQSPSSLSASVGDRVTINCQASQSIGSNLAWYQQKPGKRPKLLIYAASTLPSGVPSRFSGSGSGTDFTLTISSLQPEDFATYYCQQAYSVGNVDNAFGGGTKVEIK | binds |  | binds |
| humanized clone 408 anti-RANKL antibody (antibody, V domains shown) VH: EVQLVESGGGLVQPGGSLRLSCAVSGFSLSTDVVSWVRQAPGKGLEWIGYTWNGGATFYASWAKGRFTFSKDSSKNTVYLQMNSPRAEDTAVYFCARGYNGMDPWGPGTLVTVSS VL: DIQMTQSPSSLSASVGDRVTIKCQASQNIGSNLAWYQQKPGKPPKLLISKASTLASGVPSRFSGSGSGTDFTLTISSLQPEDFATYYCQQGYTTKNVVNPFGGGTKVEIK |  |  | binds |
